The record followed here is PMC10787542.

These are yes or no findings as the source states them, for the method shown. Binding seen in cells or lysates may run through a third protein. Here binding means that the protein was enriched with, or labelled near, the bait; the list need not be complete.

The target of the test is YAP-BirA*-HA (UniProt P46937). In words: proximity labelling; Bio-ID: HEK293T cells stably expressing YAP-BirA*-HA, 50 µM biotin for 24 h; biotinylated proteins captured on streptavidin beads; mass spectrometry.

B1: AMOTL1 (protein, UniProt Q8IY63 1-956)
chain: MWRAKLRRGTCEPAVKGSPSACYSPSSPVQVLEDSTYFSPDFQLYSGRHETSALTVEATSSIREKVVEDPLCNFHSPNFLRISEVEMRGSEDAAAGTVLQRLIQEQLRYGTPTENMNLLAIQHQATGSAGPAHPTNNFSSTENLTQEDPQMVYQSARQEPQGQEHQVDNTVMEKQVRSTQPQQNNEELPTYEEAKAQSQFFRGQQQQQQQQGAVGHGYYMAGGTSQKSRTEGRPTVNRANSGQAHKDEALKELKQGHVRSLSERIMQLSLERNGAKQHLPGSGNGKGFKVGGGPSPAQPAGKVLDPRGPPPEYPFKTKQMMSPVSKTQEHGLFYGDQHPGMLHEMVKPYPAPQPVRTDVAVLRYQPPPEYGVTSRPCQLPFPSTMQQHSPMSSQTSSASGPLHSVSLPLPLPMALGAPQPPPAASPSQQLGPDAFAIVERAQQMVEILTEENRVLHQELQGYYDNADKLHKFEKELQRISEAYESLVKSTTKRESLDKAMRNKLEGEIRRLHDFNRDLRDRLETANRQLSSREYEGHEDKAAEGHYASQNKEFLKEKEKLEMELAAVRTASEDHRRHIEILDQALSNAQARVIKLEEELREKQAYVEKVEKLQQALTQLQSACEKREQMERRLRTWLERELDALRTQQKHGNGQPANMPEYNAPALLELVREKEERILALEADMTKWEQKYLEESTIRHFAMNAAATAAAERDTTIINHSRNGSYGESSLEAHIWQEEEEVVQANRRCQDMEYTIKNLHAKIIEKDAMIKVLQQRSRKDAGKTDSSSLRPARSVPSIAAATGTHSRQTSLTSSQLAEEKKEEKTWKGSIGLLLGKEHHEHASAPLLPPPPTSALSSIASTTAASSAHAKTGSKDSSTQTDKSAELFWPSMASLPSRGRLSTTPAHSPVLKHPAAKGTAEKLENSPGHGKSPDHRGRVSSLLHKPEFPDGEMMEVLI
As for B1, the binding result was “binds”.

B2: chromatin accessibility complex subunit 1 (CHRAC1) (protein, UniProt Q9NRG0 1-131)
chain: MADVVVGKDKGGEQRLISLPLSRIRVIMKSSPEVSSINQEALVLTAKATELFVQCLATYSYRHGSGKEKKVLTYSDLANTAQQSETFQFLADILPKKILASKYLKMLKEEKREEDEENDNDNESDHDEADS
Turning to B2, the binding entry is “binds”.
